Source: US20200197532A1
No constants are given. Whether binding was seen depends on the method and setting. Some binding calls cover weakened binding; strength is not graded here.

The chains behind the UniProt entries cited, without tags or fusion partners. Residues count along the entry.
UniProt P28481, residues 201-1214: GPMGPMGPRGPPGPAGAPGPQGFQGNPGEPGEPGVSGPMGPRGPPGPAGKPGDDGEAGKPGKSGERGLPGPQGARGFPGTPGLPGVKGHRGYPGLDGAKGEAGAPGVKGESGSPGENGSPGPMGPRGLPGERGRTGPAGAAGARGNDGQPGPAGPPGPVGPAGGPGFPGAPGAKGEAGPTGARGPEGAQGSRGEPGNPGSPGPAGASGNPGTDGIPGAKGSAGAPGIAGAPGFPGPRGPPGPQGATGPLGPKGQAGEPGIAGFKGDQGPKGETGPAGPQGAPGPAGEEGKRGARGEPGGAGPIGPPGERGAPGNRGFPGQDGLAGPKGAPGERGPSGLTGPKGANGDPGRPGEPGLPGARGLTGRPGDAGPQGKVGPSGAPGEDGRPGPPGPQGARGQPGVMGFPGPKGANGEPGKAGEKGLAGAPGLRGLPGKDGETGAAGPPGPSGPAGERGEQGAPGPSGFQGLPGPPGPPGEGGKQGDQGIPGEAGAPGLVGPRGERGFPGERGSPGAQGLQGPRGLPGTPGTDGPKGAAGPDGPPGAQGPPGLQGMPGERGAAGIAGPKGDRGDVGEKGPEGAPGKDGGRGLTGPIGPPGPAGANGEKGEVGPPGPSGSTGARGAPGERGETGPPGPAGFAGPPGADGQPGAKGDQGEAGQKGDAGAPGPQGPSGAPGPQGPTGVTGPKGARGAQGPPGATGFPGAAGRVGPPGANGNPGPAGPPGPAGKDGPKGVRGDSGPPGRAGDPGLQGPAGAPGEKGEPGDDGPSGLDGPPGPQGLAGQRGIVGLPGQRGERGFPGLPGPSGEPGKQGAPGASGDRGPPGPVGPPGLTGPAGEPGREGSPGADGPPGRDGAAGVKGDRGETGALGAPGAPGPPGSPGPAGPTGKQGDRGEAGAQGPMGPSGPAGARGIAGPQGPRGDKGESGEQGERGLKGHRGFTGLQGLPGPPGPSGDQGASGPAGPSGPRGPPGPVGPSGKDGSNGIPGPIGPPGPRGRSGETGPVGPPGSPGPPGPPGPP
UniProt P02458, residues 201-1214: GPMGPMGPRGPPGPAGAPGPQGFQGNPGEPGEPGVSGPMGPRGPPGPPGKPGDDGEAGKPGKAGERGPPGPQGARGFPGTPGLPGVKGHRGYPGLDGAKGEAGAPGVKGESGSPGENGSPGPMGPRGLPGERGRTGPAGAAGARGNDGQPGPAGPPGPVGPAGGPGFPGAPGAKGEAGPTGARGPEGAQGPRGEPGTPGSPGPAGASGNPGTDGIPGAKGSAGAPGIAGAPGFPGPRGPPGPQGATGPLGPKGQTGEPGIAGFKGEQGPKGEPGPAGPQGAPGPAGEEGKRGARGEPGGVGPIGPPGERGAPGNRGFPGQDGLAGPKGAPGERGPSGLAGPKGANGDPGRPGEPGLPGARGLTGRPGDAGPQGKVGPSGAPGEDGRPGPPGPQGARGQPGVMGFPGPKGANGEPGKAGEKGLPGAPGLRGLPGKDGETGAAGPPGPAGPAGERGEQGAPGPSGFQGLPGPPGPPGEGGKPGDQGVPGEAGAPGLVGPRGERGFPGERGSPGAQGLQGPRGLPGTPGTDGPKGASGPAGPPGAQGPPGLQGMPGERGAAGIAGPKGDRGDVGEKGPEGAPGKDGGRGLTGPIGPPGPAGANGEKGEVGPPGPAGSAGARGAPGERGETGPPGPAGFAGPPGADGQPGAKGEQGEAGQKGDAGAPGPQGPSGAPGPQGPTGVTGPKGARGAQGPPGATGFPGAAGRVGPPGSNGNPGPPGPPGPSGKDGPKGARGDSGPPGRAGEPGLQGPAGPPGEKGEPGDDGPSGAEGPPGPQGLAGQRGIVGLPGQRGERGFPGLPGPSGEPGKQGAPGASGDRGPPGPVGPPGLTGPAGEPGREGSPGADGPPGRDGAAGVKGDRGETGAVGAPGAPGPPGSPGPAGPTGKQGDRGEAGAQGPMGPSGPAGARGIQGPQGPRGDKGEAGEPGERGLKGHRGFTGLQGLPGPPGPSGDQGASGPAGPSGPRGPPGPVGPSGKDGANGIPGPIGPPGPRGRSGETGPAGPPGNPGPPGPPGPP
UniProt P02459, residues 201-1214: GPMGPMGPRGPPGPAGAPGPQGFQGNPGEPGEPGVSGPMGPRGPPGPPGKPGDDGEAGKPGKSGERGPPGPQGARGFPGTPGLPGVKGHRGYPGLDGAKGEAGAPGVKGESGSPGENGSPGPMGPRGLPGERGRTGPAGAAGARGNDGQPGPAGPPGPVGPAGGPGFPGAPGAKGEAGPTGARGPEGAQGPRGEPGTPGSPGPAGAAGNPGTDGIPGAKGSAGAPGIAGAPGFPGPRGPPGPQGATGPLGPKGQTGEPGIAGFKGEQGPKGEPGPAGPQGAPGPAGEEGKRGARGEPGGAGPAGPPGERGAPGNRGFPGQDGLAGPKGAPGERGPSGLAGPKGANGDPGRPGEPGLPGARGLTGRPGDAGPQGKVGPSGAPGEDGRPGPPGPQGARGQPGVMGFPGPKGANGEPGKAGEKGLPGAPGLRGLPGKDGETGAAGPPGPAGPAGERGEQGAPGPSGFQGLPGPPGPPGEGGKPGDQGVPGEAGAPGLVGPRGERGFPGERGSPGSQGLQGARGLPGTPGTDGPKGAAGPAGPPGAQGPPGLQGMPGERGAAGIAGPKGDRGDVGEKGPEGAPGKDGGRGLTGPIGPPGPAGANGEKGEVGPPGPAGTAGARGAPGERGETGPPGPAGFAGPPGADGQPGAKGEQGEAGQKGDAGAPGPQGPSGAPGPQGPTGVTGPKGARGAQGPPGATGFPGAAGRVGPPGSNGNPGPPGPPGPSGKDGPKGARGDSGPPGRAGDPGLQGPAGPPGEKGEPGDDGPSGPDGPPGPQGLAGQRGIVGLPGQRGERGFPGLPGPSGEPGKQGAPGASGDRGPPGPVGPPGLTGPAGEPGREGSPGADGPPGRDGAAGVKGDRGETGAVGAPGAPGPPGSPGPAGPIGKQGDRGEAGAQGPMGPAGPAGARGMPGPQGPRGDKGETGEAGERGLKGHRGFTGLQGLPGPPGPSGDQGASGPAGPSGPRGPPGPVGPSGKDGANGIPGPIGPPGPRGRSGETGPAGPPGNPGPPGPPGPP

Assays:
[1] = biological target: Mouse type II collagen (mouse) (UniProt P28481); assay: in vivo optical imaging, ROI fluorescence of mouse knee
[2] = biological target: Mouse type II collagen (mouse) (UniProt P28481); assay: in vivo optical imaging of fluorescent antibody in mechanically loaded mouse knee
[3] = biological target: Human type II collagen (human) (UniProt P02458); assay: ELISA on type II collagen
[4] = biological target: Mouse type II collagen (mouse) (UniProt P28481); assay: ELISA on type II collagen
[5] = biological target: Native bovine type II collagen (bovine) (UniProt P02459); assay: ELISA on type II collagen

Measured: binding

B1: E4 monoclonal antibody to type II collagen (MabCII, clone E4-D4) (antibody, mouse IgG2a, kappa, V domains shown)
VH: EVQLVESGGGLVKPGGSLKVSCEASGFTFSDYGMHWVRQAPEKGLEWVAYISSVSSTIYYADTVEGRFTISRDNVRNTLFLQMTSLRSEDTAMYYCAREGWLPLFAFWGQGTLVTVSA
VL: DIVLTQSHKFMSTSVGDRVSITCKASQDVSITVAWYQQKPGQSPKLLIYSASYRNPGVPDRFTGSGSGTDFNFTISTVQAEDLAVYYCQQYYIIPWTFGGGTKLEFKR
binds: all assays above
